Results: patent publication US20240148824A1
These are yes or no findings as the source states them, for the method shown. Some entries that bind do so weakly or less than the wild type.

Protein sequences, listed by entry. Tags and fused reporters are not part of them. Lines headed by an entry give the natural chain unless they say otherwise; changes in a name come on top.
UniProt Q12884: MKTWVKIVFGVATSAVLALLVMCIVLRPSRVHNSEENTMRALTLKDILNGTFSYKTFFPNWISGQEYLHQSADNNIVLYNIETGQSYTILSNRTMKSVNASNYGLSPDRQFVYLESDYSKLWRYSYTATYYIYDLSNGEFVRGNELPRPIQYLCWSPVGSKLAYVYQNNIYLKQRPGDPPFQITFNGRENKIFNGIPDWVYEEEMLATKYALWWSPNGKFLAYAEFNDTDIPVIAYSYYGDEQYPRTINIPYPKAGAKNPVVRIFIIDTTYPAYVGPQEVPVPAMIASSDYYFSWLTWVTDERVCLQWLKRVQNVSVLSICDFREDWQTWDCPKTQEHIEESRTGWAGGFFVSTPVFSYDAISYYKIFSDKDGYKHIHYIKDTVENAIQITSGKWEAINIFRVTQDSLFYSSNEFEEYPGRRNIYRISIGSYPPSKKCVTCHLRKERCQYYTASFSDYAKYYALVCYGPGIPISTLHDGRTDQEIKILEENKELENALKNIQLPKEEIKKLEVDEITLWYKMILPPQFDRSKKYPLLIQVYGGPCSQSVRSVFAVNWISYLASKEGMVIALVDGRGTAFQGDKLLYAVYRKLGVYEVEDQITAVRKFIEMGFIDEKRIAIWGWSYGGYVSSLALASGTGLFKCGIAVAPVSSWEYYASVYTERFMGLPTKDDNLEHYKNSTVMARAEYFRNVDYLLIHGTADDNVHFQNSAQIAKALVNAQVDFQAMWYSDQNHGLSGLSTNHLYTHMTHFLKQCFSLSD

B1: 2HFA50 (VHH)
VHH: QVQLQESGGGLVQAGGSLRLSCVASGTISSGAMGWYRQVPGKQREWVAGITGSRTTMYTESVKGRFTISRDNAENTVFLQMNNLKSEDTAVYYCNLWPPSRPDYWGQGTQVTVSS
B2: 2HFA53 (VHH)
VHH: QVQLQESGGGLVEAEGSLRLSCAASGRAFGSYAMGWFRQAPGLERELVAAISSGGTTYYADSVKGRFTISRDNARNTVYLQTNSLKPEDTAVYYCAARTGGAAYTRRIDWPYWGQGTQVTVSS
B3: 2HFA55 (VHH)
VHH: QVQLQESGGGLVEAEGSLRLSCAASGRTFGSYAMGWFRQAPGKERELVAAISSGGSTLYADSVKGRFTISRDNAKNTVYLQMNSLKPEDTAVYYCAARSGGAYYTARVDWPYWGQGTQVTVSS
B4: 2HFA62 (VHH)
VHH: QVQLQESGGGLVQAGGSLRLSCAASRSIFSIGTMGWYRQAPGKRRELVAFITVDHNTYYTDSVKGRFTISTENDKNTVYLQMNSLKPEDTAVYYCNRAPPSTDGDRWGQGTQVTVSS
B5: 2HFA51 (VHH)
VHH: QVQLQESGGGLVQAGGSLRLSCAVSGIISSMNAMGWYRQAPGKRRELVAGLGSGVSTTYADAVKGRFTISRDNAKNTLYLQMNSLKPEDTAVYYCNRWPPPYDYWGQGTQVTVSS
B6: 2HFA65 (VHH)
VHH: QVQLQESGGGLVQAGGSLRLSCAASGNIDSIASMGWYRQAPGKQRELVAAISVGGSTYYADSVKGRFTISRDNARNTVYLQTNSLKPEDTAVYYCAARRGSAYYTSRIDWPYWGQGTQVTVSS
B7: 2HFA29 (VHH)
VHH: QVQLQESGGGLVQAGGSLRLSCAASGTMSSINAMGWYRQAPGKQRELVAGILSDGTTKYVESVKGRFTISRDNAKNTVHLQMNSLKVEDTAVYYCNFFPPPVPASWGQGTQVTVSS
B8: 2HFA26 (VHH)
VHH: QVQLQESGGGLVQAGGSLRLSCAASGRTFSTYAMGWFRQAPGKERELVAAISNGGSAYYADSVKGRFTISRDNARNTVYLQTNSLKPEDTAVYYCAARRGSAYYTNRIDWPYWGQGTQVTVSS
B9: 2HFA7 (VHH)
VHH: QVQLQESGGGLVEAEGSLRLSCAASGRTFGSYAMGWFRQAPGKSRELVAAISSGGTTYYADSVKGRFTISRDNARNTVYLQTNSLKPEDTAVYYCAARTGSAYYTNRIDWPYWGQGTQVTVSS
B10: 2HFA25 (VHH)
VHH: QVQLQESGGGLVQAGGSLRLSCAASGRTFSSYAMGWFRQAPGKERELVAAISNGGSAYYADSVKGRFTISRDNARNTVYLQTNSLKPEDTAVYYCAARRGSAYYTNRIDWPYWGQGTQVTVSS
B11: 2HFA31 (VHH)
VHH: QVQLQESGGGLVEAEGSLRLSCAASGRTFGSYAMGWFRQAPGKSRELVAAISSGGTTYYADSVKGRFTISRDNARNTVYLQTNSPKPEDTAVYYCAARTGSAYYTNRIDWPYWGQGTQVTVSS
B12: 2HFA3 (VHH)
VHH: QVQLQESGGGLVEAEGSLRLSCIASGRTFGTYAMGWFRQAPGKERELVAAISTGGSTYYADSVKGRFTISRDNARNTVYLQTNSLKPEDTAVYYCAARRGSAYYTNHVDWPYWGQGTQVTVSS
B13: 2HFA6 (VHH)
VHH: QVQLQESGGGLVEAEGSLRLSCAASGRTFGTYALAWFRQAPGKSRELVAAISSGGSTYYADSVKGRFTISRDNARNTVYLQTNSLKPEDTAVYYCAAKTGSAYYTNRIDWPYWGQGTQVTVSS
B14: 2HFA1 (VHH)
VHH: QVQLQESGGGLVEAEGSLRLSCIASGRTFGTYAMGWFRQAPGKERELVAAISSGGSAYYADSVKGRFTISRDNARNTVYLQTNSLKPEDTAVYYCAARRGSAYYTNRIDWPYWGQGTQVTVSS
B15: 2HFA9 (VHH)
VHH: QVQLQESGGGLVEAEGSLRLSCAASGRTFGSYAMGWFRQAAGKERELVAAISAGGSTLYADNVKGRFTISRDNARNTVYLLSNSLKPEDTAVYYCAARRGSAYYTNHIDWPYWGQGTQVTVSS
B16: 2HFA73 (VHH)
VHH: QVQLQESGGGLVQPGGSLRLSCAASGRTFGSYAMGWFRQAAGKERELVAAISAGGSTLYADNVKGRFTISRDNARNTVYLLSNSLKPEDTAVYYCAARRGSAYYTNHIDWPYWGQGTQVTVSS
B17: 2HFA67 (VHH)
VHH: QVQLQESGGGLVQAGGSLRLSCVVSGSFDSRNAMAWYRQALGKERVWVAGIISDGSTNYADAVKGRFTISRDNDKNTVYLQMNSLKPEDTAVYYCNAWPPRIGLGSWGQGTQVTVSS
B18: 2HFA36 (VHH)
VHH: QVQLQESGGGLVQPGDSLRLSCAASERTFSMYAIGWFRQAPGKERELVAGISSGGSTNYADSVKGRFTISRDNPKKTVYLQMMSLEPEDTGVYYCAARSGSAYFSGRYYWNYWGQGTQVTVSS
B19: 2HFA12 (VHH)
VHH: QVQLQESGGGLVQAGGSLRLSCAASGSISMLNSMGWYRQALGKQREFVAGITSGGRTNYADSVKGRFAISRDNDKNTVYLQMNSLKPEDTAVYYCNTWPPRIAFDSWGQGTQVTVSS
B20: 2HFA71 (VHH)
VHH: QVQLQESGGGLVEAEGSLRLSCAASGRTFGSYAMGWFRQAPGKERELVAAISSGGSTLYAGSVKGRFTISKDNAKNTVYLQMNSLKPEDTAVYYCAARSGGAYYTARVDWPYWGQGTQVTVSS
B21: 2HFA49 (VHH)
VHH: QVQLQESGGGLVQAEGSLRLSCAASGRTFGSYAMGWFRQAPGKERELVAGISSGGITNYAHSVKGRFTISRDIDKNTVFLQMNSLKPEDTAVYYCAARSGGAYYTSRVDWPYWGQGTQVTVSS
B22: 2HFA43 (VHH)
VHH: QVQLQESGGGLVQAGGSLRLSCVASGTIFSSGAMAMGWYRQAPGKQREWVAGITGSRTTTYADSVKGRFTISRDNAENTVFLQMNNLKSEDTAVYYCNLWPPSRPDHWGQGTQVTVSS
B23: 2HFA23 (VHH)
VHH: QVQLQESGGGLVQAGGSLRLSCAASGRTFSMYAIGWFRQAPGKERELVASISSGGSTNYADSVKGRFTISRDNAEKTVYLQMMSLEPEATGVYYCAARDGSALYTAHSDWDYWGQGTQVTVSS
B24: 2HFA10 (VHH)
VHH: QVQLQESGGGLVQAGGSLRLSCTVAESIDVRNAMGWYRQAPGKRREWVATITTGGRTNYADSVKARFTISRDNAKNTVYLQMNSLKPEDTAVYYCNAAPPILNSWGQGTQVTVSS
B25: 2HFA14 (VHH)
VHH: QVQLQESGGGLVQAGDSLRLSCAASGRTFSSYVMGWFRQVPGKQRELVAAITSGLSTYYADSLKGRFTISRDNAKNTMYLQMNSLKLEDTAVYYCAAREGGGIWTSSTQYDYWGQGTQVTVSS
B26: 2HFA24 (VHH)
VHH: QVQLQESGGGLVQAGGSLRLSCAASGSIFSSNAMGWYRQAAGKRRELVAGIRSDGNTNYVDSVKGRFTISRDRAKNTVYLQMTSLKPEDTAVYYCNYWPPPLRQGGDYAYWGQGTQVTVSS
B27: 2HFA44 (VHH)
VHH: QVQLQESGGGLVQAGGSLRLSCAASGGFDSRNAMGWYRQAPGKRREWVATITSDGRTNYADSVKARFTISRDNSKNTVYLQMNSLKPEDTAVYYCNAAPPIFGSWGQGTQVTVSS
B28: 2HFA11 (VHH)
VHH: QVQLQESGGGLVQAGGSLRLSCAASGSFDSRNAMGWYRQAPGKRREWVATITTDGRTNYADSVKARFTVSRDNAKNTVYLQMNSLKPDDTAVYYCNAAPPIFNSWGQGTQVTVSS
B29: 2HFA46 (VHH)
VHH: QVQLQESGGGLVQAGGSLRLSCAASGSIDSRNTMGWYRQAPGKRREWVATITTGGRTNYADSVKARFTISRDNAKNTVYLQMNSLKPEDTAVYYCNLAPPIFNSWGQGTQVTVSS
B30: 2HFA38 (VHH)
VHH: QVQLQESGGGLVRVGGSLRLSCAVSGSFDSRNSMGWYRQAPGKRREWVATITSGSRTNYADSVKARFTISRDNAKNTVYLQMDSLKPEDTAVYYCNAAPPIFNSWGQGTQVTVSS
B31: 2HFA4 (VHH)
VHH: QVQLQESGGGLVQAGGSLRLSCAASGSIDIRNAMGWYRQAPGTRREWVATITTDGRTNYADSVKARFTISRDNAKNTVYLQMNSLKPEDTAVYYCNLAPPIFGSWGQGTQVTVSS
B32: 2HFA52 (VHH)
VHH: QVQLQESGGGLVRAGGSLRLSCAASGTFDSRNAMGWYRQAPGKRREWVATITTDGRTNYADSVKARFTISRDNAKNTVYLQMNSLKPEDTAVYYCNAAPPIFGSWGQGTQVTVSS

These binders were tested against recombinant His6-tagged extracellular domain of human FAP (human) (UniProt Q12884) (assay: ELISA, crude periplasmic extracts on coated antigen).

binding, binds:
B1
B2
B3
B4
B5
B6
B7
B8
B9
B10
B11
B12
B13
B14
B15
B16
B17
B18
B19
B20
B21
B22
B23
B24
B25
B26
B27
B28
B29
B30
B31
B32
